Test results: PubChem BioAssay AID1671190 (National Center for Advancing Translational Sciences (NCATS), 2021)
In all, about 580,000 compounds went through this assay and about 6,100 (1.1%) were called active. The shares of active, inactive and inconclusive entries below differ from those in the screen. Calls follow the shape of the dose curve; as a rule, active = well fitted inhibition curve with a large enough effect; inconclusive = small, poorly fitted or top-dose-only effect, or another doubt; inactive = no such curve, though single readings can be large or run the other way. A potency beside an inconclusive call is a rough fit, not a confirmed value.
% is scaled to controls: 0 for no effect and ±100 for the full control effect; potency is read from the fitted curve at half-maximal effect.

The chains behind the UniProt entries cited, without tags or fusion partners.
UniProt P18054, whole entry, looked up: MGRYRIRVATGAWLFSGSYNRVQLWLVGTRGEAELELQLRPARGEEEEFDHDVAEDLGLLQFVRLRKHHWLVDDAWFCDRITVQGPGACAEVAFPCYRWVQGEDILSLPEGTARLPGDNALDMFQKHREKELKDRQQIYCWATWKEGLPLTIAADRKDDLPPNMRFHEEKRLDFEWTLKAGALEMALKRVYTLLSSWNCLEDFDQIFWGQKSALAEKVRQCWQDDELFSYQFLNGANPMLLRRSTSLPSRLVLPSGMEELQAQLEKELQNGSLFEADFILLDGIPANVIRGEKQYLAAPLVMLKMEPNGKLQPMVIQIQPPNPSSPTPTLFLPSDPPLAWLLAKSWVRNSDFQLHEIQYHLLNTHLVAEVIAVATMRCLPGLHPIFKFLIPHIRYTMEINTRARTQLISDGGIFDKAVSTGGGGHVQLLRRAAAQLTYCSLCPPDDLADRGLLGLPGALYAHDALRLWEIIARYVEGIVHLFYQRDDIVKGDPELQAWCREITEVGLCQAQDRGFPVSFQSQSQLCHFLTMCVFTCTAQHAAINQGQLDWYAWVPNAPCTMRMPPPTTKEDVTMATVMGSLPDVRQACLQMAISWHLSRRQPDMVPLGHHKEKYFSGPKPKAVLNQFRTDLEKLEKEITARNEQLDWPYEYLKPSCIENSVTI

The compounds below were run against Polyunsaturated fatty acid lipoxygenase ALOX12 (Homo sapiens) (UniProt P18054) (assay: Primary qHTS assay for inhibitors of human arachidonate 12S-lipoxygenase (ALOX12): Round 2). Conditions: purified 12hLO, xylenol orange hydroperoxide absorbance; activity change, negative = inhibition: at 108 µM (top of the series) unless noted.
Summary of the method: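 Purified human 12hLO (150 nM final) in 25 mM Hepes, 0.01% Triton X-100, pH 7.0 was preincubated 15 min at room temperature with compound. Then 40 uM arachidonic acid was added, 30 min. Hydroperoxide was read by Fe-XO absorbance ratio 573/405 nm.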
`Cc1c(C)c2ccc(OCc3nn[nH]n3)cc2oc1=O` was tested, and the Potency was inconclusive: 12.6 µM [inhibitor, full curve].
In the case of `O=C(C[n+]1cccc(C(=O)N/N=C/c2ccc(Br)cc2)c1)c1ccccc1`, the “activity change, negative = inhibition” value is reported as inactive: 10.4%.
In the case of `Cc1nc(C)c(C(=O)Nc2ncc([N+](=O)[O-])s2)o1`, the Potency is reported as inconclusive: 11.2 µM [inhibitor, partial curve].
`Cc1ccc(N2CC(C(=O)N3CCN(c4ccccc4)CC3)CC2=O)cc1` (stereo unspecified) was tested, and the Potency was inconclusive: 22.4 µM [inhibitor, partial curve, poor fit].
With `COC(=O)c1ccccc1NC(=O)/C=C/c1cc(OC)c(OC)c(OC)c1` the “activity change, negative = inhibition” value was inactive: 0%.
In the case of `Cc1ccc2cc3cc(C(=O)NCCCN4CCc5ccccc5C4)oc3nc2c1`, the “activity change, negative = inhibition” value is reported as inactive: 0%.
For `CC(CCc1ccccc1)NC(=O)C1CC=CCC1` (stereo unspecified), the “activity change, negative = inhibition” value was inactive: 4.29%.
`CCNC(=O)C1(NC(=O)Cc2coc(-c3ccccc3)n2)CCCCC1` was tested, and the “activity change, negative = inhibition” value was inactive: 0.656%.
In the case of `Cc1ccc(Cn2c(SCCC(=O)O)nc3c2c(=O)n(C)c(=O)n3C)cc1`, the Potency is reported as inconclusive: 12.6 µM [inhibitor, full curve, poor fit].
In the case of `O=C(CSc1ncnc2c1nnn2-c1ccc(F)cc1)NCc1ccco1`, the “activity change, negative = inhibition” value is reported as inactive: 9.21%.
`c1ccc(Oc2cc3c(cn2)NCCN(Cc2ccc4[nH]ccc4c2)C3)cc1` was tested, and the Potency was inconclusive: 112 µM [inhibitor, single point].
`S=C(Nc1ccccn1)NC1CCCC1` was tested, and the Potency was active: 44.7 µM.
For `C[N+]1=C2CCCCCN2C(O)(c2ccccc2)C1` (stereo unspecified), the Potency was inconclusive: 17.8 µM [inhibitor, partial curve, poor fit].
In the case of `Cc1nn(-c2ccccc2)c(Oc2ccccc2F)c1CCC(=O)NCc1ccco1`, the Potency is reported as inconclusive: 20 µM [inhibitor, full curve].
For `CN(C)c1nc2c(c(=O)[nH]c(=O)n2C)n1Cc1ccccc1Cl`, the Potency was inconclusive: 112 µM [inhibitor, single point].
With `Cc1ccc(C(=O)OCC(=O)NC2CCCC(C)C2C)cc1S(=O)(=O)N1CCCCC1` (stereo unspecified) the “activity change, negative = inhibition” value was inactive: -17.9%.
In the case of `C=CCNC(=O)CSc1ncc2c(n1)-c1c(csc1SC)CC2`, the Potency is reported as inconclusive: 112 µM [inhibitor, single point].
`C[C@@H](NC(=O)c1cccn1C)c1onc(-c2ccc(F)cc2)c1C(=O)O` was tested, and the “activity change, negative = inhibition” value was inactive: 6.02% [at 176 µM].
With `COC(=O)c1ccccc1NC(=O)c1sc(=S)n(C)c1N` the Potency was inconclusive: 10 µM [inhibitor, full curve, poor fit].
With `Cc1cc(=O)[nH]c(N=N/C(=N/Nc2ccccc2C)c2ccccc2)n1` the “activity change, negative = inhibition” value was inactive: 2.69%.
`CN(C)S(=O)(=O)c1cccc(-c2cn3cccnc3n2)c1` was tested, and the Potency was inconclusive: 15.8 µM [inhibitor, partial curve, poor fit].
With `O=C(CCCc1c[nH]c2ccccc12)NCC1COc2ccccc2O1` (stereo unspecified) the Potency was inconclusive: 44.7 µM [inhibitor, partial curve, poor fit].
In the case of `CCOC(=O)c1nnc(-c2ccc(C)cc2)nc1Oc1ccc(Cl)cc1Cl`, the Potency is reported as inconclusive: 35.5 µM [inhibitor, partial curve, poor fit].
In the case of `O=C(Nc1c(C(=O)N2CCN(c3ccccc3F)CC2)oc2ccccc12)c1ccc(Br)o1`, the “activity change, negative = inhibition” value is reported as inactive: -14.7%.
`CC(C)c1ccc2oc(-c3ccc(N)cc3O)nc2c1` was tested, and the Potency was active: 35.5 µM.
`Cc1cc(NC(=O)CSCC(=O)N(c2cccc(Cl)c2)C(C(=O)NC2CCCCC2)c2ccc(O)c(O)c2)no1` (stereo unspecified) was tested, and the Potency was inconclusive: 56.2 µM [inhibitor, partial curve, poor fit].
For `O=C(NC(=S)NCc1nc2ccccc2[nH]1)c1ccccc1F`, the “activity change, negative = inhibition” value was inactive: -0.387%.
With `O=C(NNc1ccccc1)OCc1ccccc1` the Potency was inconclusive: 39.8 µM [inhibitor, full curve, poor fit].
`C[C@@H]1CCCCO[C@@H](CN(C)S(=O)(=O)c2ccc(F)cc2)[C@@H](C)CN([C@H](C)CO)C(=O)c2cc(N(C)C)ccc2O1` was tested, and the Potency was inconclusive: 11.2 µM [inhibitor, partial curve, poor fit].
In the case of `COc1ccc(-c2ccc(=O)n(CC(=O)Nc3ccccc3C(F)(F)F)n2)cc1`, the Potency is reported as inconclusive: 178 µM [inhibitor, partial curve, poor fit].
For `O=C(COCc1cc(-c2cccs2)on1)NCCN1CCCCCC1`, the “activity change, negative = inhibition” value was inactive: -24.5%.
In the case of `CC1=CCC2C(C)(C)CCCC2(C)C1CC/C(C)=C\CC/C(C)=N/NC(N)=O` (stereo unspecified), the Potency is reported as inconclusive: 17.8 µM [inhibitor, full curve].
In the case of `Cc1cc(C=O)c(C)n1-c1ccc(N2CCCCC2)c([N+](=O)[O-])c1`, the “activity change, negative = inhibition” value is reported as inactive: -24.2%.
With `Cc1cc(C(=O)NCc2ccc(C(=O)O)o2)c(C)o1` the Potency was inconclusive: 12.6 µM [inhibitor, full curve, poor fit].
With `Cc1nn(-c2ccc(Cl)cc2)c(Cl)c1/C=C(\C#N)C(N)=O` the Potency was inconclusive: 158 µM [inhibitor, partial curve, poor fit].
`Nc1ccc(Oc2ccc([N+](=O)[O-])cc2[N+](=O)[O-])cc1` was tested, and the “activity change, negative = inhibition” value was inactive: -20.7%.
For `Cn1ncc(Cl)c1C(=O)Nc1ccc2c(c1)CCC2`, the Potency was inconclusive: 126 µM [inhibitor, single point].
`S=C(S)N1CCCC1` was tested, and the Potency was inconclusive: 31.6 µM [inhibitor, partial curve, poor fit].
With `CCOC(=O)Cc1nnc(NC(=O)CSc2ccc(C)cc2)s1` the Potency was inconclusive: 39.8 µM [inhibitor, partial curve, poor fit].
`CCOc1ccccc1/C=N/Nc1ccnc(=O)[nH]1` was tested, and the Potency was inconclusive: 4.47 µM [inhibitor, full curve, poor fit].
`Fc1ccc(/C=N/Nc2c(Cl)cc(Cl)cc2Cl)c(F)c1` was tested, and the Potency was active: 39.8 µM.
In the case of `Cc1ccc(C2c3[nH]c4ccccc4c3CCN2C(=O)CSc2ccccc2)cc1` (stereo unspecified), the Potency is reported as inconclusive: 50.1 µM [inhibitor, partial curve, poor fit].
`CCOC(=O)C1CCN(C(=O)c2cccc(NS(=O)(=O)c3ccc(Br)cc3)c2)CC1` was tested, and the Potency was inconclusive: 141 µM [inhibitor, single point].
`O=C(NC1CCCCC1)C(C1CC1)N1CCc2ccccc2C1` (stereo unspecified) was tested, and the Potency was inconclusive: 112 µM [inhibitor, single point].
With `CCC(C)CCN1C(Nc2ccccc2)=NC[C@@H]1Cc1ccccc1` (stereo partly specified) the “activity change, negative = inhibition” value was inactive: 1.27%.
`Cc1ccc(CN2CCC(c3nn(C)c(=O)n3Cc3ccccc3)CC2)o1` was tested, and the “activity change, negative = inhibition” value was inactive: 13%.
In the case of `COc1cc2ccccc2cc1C(=O)Nc1ccccc1Cl`, the Potency is reported as inconclusive: 31.6 µM [inhibitor, partial curve, poor fit].
With `CCCCN(C(=O)c1ccco1)C1CCS(=O)(=O)C1` (stereo unspecified) the “activity change, negative = inhibition” value was inactive: 1.14%.
With `C[S+](=O)([O-])CCn1ncc2cc(OCc3cccc(-c4cccnc4)c3)ccc21` the “activity change, negative = inhibition” value was inactive: 12.8% [at 176 µM].
In the case of `Cc1ccc(-c2nc3ccccc3nc2NN)cc1`, the Potency is reported as inconclusive: 35.5 µM [inhibitor, partial curve, poor fit].
With `CN1CC[n+]2cnc3ccccc3c21` the Potency was inconclusive: 7.08 µM [inhibitor, full curve, poor fit].
`O=C(Nc1cccc(F)c1)C1CCN(C(=O)c2ncn3c2COC(c2ccc(F)cc2)C3)CC1` (stereo unspecified) was tested, and the “activity change, negative = inhibition” value was inactive: 56.6%.
With `COc1ccccc1NC(=O)CC1CCCN(c2cnn(C)c(=O)c2)C1` (stereo unspecified) the “activity change, negative = inhibition” value was inactive: -0.474%.
`CCNC(=S)N(CCc1ccccc1C)Cc1cc2cc(OC)c(OC)cc2[nH]c1=O` was tested, and the Potency was inconclusive: 50.1 µM [inhibitor, full curve, poor fit].
For `COC(=O)/C=C1/SC(=Nc2ccc(Cl)c(Cl)c2)NC1=O`, the “activity change, negative = inhibition” value was inactive: -23.7%.
`c1cc(-c2nc(-c3ccc4c(c3)OCCCO4)cs2)cs1` was tested, and the Potency was inconclusive: 8.91 µM [inhibitor, full curve].
In the case of `CCc1ccc(S(=O)(=O)N/N=C\c2cn(CC(N)=O)c3ccccc23)cc1`, the Potency is reported as inconclusive: 79.4 µM [inhibitor, partial curve, poor fit].
For `Cc1ccc2nc(-c3ccc(C)s3)cc(C(=O)NCc3ccco3)c2c1`, the Potency was inconclusive: 35.5 µM [inhibitor, partial curve, poor fit].
For `COc1cccc(C2Nc3ccccc3C(=O)N2Cc2ccccc2)c1` (stereo unspecified), the “activity change, negative = inhibition” value was inactive: 19.3%.
In the case of `CC(C)(C)c1ccc(C(=O)Nc2ccc(Cl)cn2)cc1`, the “activity change, negative = inhibition” value is reported as inactive: -0.199%.
`C=CCNc1nc(-c2ccc3[nH]c(=O)oc3c2)cs1` was tested, and the Potency was inconclusive: 79.4 µM [inhibitor, partial curve, poor fit].
With `CCCn1c(=O)c2c(nc(-n3nc(C)c(C)c3C)n2CC)n(C)c1=O` the Potency was inconclusive: 56.2 µM [inhibitor, single point].
With `CN1C(=O)c2cccn2CC1CNC(=O)Cc1cccc(F)c1` (stereo unspecified) the “activity change, negative = inhibition” value was inactive: 58%.
For `COc1ccc(OC)c(S(=O)(=O)NCC(c2ccco2)N2CCc3ccccc32)c1` (stereo unspecified), the Potency was active: 39.8 µM.
With `CC1=C/C(=C(/c2cc(C)c(O)c(Br)c2)c2ccccc2S(=O)(=O)O)C=C(Br)C1=O` the Potency was inconclusive: 50.1 µM [inhibitor, partial curve, poor fit].
In the case of `CCCNCc1ccc(-c2ccc(Br)cc2)o1`, the “activity change, negative = inhibition” value is reported as inactive: -29.2%.
`CC(C)NC(=O)c1cc(-c2ccc(Cl)cc2Cl)nc2c1cnn2C` was tested, and the Potency was inconclusive: 70.8 µM [inhibitor, partial curve, poor fit].
In the case of `CCN(CC)S(=O)(=O)c1cc(NC(=O)C(=O)c2c(-c3ccccc3)cc3ccccn23)ccc1C`, the “activity change, negative = inhibition” value is reported as inactive: -10.3%.
With `CNC(=O)/C(C#N)=C/c1ccc(-c2ccc(Cl)cc2)o1` the Potency was inconclusive: 50.1 µM [inhibitor, partial curve, poor fit].
In the case of `O=C(CCS(=O)(=O)c1nc(-c2ccc3c(c2)OCO3)cc(C(F)(F)F)n1)Nc1ccc(F)cc1F`, the Potency is reported as inconclusive: 89.1 µM [inhibitor, partial curve, poor fit].
With `Oc1ccc(Sc2ccc(O)cc2)cc1` the Potency was inconclusive: 79.4 µM [inhibitor, single point].
